Values quoted from earlier work as cited in patent publication US5728684A, “Determination of prodrugs metabolizable by the liver and therapeutic use thereof” (priority 1994, dated 1998).
At least one compound was matched to its structure with a doubt left.

Conditions: intrahepatic infusion followed by radiation; cited from earlier work

O=c1[nH]c(=O)n([C@H]2C[C@H](O)[C@@H](CO)O2)cc1I [IUdR, iodo-deoxyuridine]
treatment of tumor cells in liver: some success
